Laboratory results reported in publication PMC4376527.
Results are given in words; binding and its absence hold for the method and conditions named. In cells and extracts the contact can be indirect.

Target: T1, Smaug (Smg) (Drosophila (endogenous in adult thoraxes)) (UniProt Q23972)
T1 sequence: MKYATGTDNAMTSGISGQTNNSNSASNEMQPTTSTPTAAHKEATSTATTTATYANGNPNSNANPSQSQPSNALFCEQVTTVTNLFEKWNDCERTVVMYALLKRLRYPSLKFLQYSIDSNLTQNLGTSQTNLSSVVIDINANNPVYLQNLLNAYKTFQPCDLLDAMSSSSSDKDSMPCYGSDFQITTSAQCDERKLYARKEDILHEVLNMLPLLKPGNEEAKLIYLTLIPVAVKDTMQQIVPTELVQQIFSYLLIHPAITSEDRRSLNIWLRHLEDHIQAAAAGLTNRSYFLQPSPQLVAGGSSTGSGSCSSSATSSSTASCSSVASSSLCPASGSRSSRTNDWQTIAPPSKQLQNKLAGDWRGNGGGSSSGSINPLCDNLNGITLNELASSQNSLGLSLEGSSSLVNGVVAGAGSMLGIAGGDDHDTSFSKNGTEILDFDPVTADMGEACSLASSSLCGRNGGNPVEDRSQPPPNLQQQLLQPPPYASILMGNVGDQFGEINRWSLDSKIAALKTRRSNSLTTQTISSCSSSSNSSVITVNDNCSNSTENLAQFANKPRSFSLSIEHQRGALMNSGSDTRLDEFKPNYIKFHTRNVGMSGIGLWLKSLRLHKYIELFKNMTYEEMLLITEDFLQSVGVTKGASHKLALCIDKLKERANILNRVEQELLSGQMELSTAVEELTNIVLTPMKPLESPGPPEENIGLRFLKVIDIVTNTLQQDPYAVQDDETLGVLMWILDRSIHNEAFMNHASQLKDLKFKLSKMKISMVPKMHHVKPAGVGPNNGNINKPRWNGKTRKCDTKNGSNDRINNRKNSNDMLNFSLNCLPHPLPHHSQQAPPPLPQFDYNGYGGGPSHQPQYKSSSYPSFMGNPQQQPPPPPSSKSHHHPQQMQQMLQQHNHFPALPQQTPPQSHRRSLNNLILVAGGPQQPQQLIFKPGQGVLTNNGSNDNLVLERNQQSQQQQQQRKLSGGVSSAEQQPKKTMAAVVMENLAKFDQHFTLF
Test: co-IP; Smg immunoprecipitation (rabbit anti-Smg; mock IP with rabbit IgG) from UASp-CCR4-HA/Mhc-Gal4 adult thorax extracts, in the presence or the absence of RNase A; western blots with anti-Smg, anti-HA and anti-PABP2

B1: PABP2 (protein, UniProt Q7KNF2 1-224)
chain: MADEDITLNEDQLLESLEETNGEQETEIATEVEEEGSMQIDPELEAIKARVKEMEEEAEKIKQMQSEVDKQMAGGSTTGLATVPLSLEEKQEIDTRSVYVGNVDYGASAEELEAHFHGCGTINRVTILCNKADGHPKGFAYIEFGSKEFVETALAMNETLFRGRQIKVMSKRTNRPGLSTTNRFARGSFRGRGARVSRACCHSTFRGARRAMGYRGRANYYAPY
  binding: no binding
